Values of other authors, collected in patent publication US20130032547A1, “STABILIZATION AND DISINFECTION OF WASTES USING HIGH ENERGY E-BEAM AND CHEMICAL OXIDANTS” (priority 2011, published 2013).
Like-named read-outs stand apart in the source and are kept apart here.

Settings: Kurucz et al., 1995, cited from earlier work

## C=C(Cl)Cl [1,1 dichloroethene]
E-beam dose 8 kGy
  % Removal: >99%

## CC(Cl)(Cl)Cl [1,1,1 trichlooethane]
E-beam dose 6.5 kGy
  % Removal: 89%

## ClC=CCl [1,2 dichloroethene]
E-beam dose 8 kGy
  % Removal: 60%

## BrC(Br)Br [Bromoform]
E-beam dose 0.8 kGy
  % Removal: >99%

## ClC(Cl)(Cl)Cl [Carbon tetrachloride]
E-beam dose 0.8 kGy
  % Removal: >99%

## ClC(Cl)Cl [Chloroform]
E-beam dose 6 kGy
  % Removal: 99%

## Clc1ccccc1 [Cholorbenzene]
E-beam dose 6.5 kGy
  % Removal: 97%

## ClC1=C(Cl)[C@]2(Cl)[C@@H]3[C@@H]4C[C@@H]([C@H]5O[C@@H]45)[C@@H]3[C@@]1(Cl)C2(Cl)Cl [Dieldrin]
E-beam dose 8 kGy
  % Removal: >99%

## CCc1ccccc1 [Ethylbenzene]
E-beam dose 6.5 kGy
  % Removal: 92%

## ClC(Cl)=C(Cl)Cl [Tetrachlorethylene (PCE)]
E-beam dose 5 kGy
  % Removal: >99%

## Cc1ccccc1 [Toluene]
E-beam dose 6.5 kGy
  % Removal: 97%

## ClC=C(Cl)Cl [Trichloroethylene (TCE)]
E-beam dose 5 kGy
  % Removal: >99%
